Values joined by “and” are separate entries in the source; they are usually repeats but may differ in a detail not shown here. Equal values may be shown once. Inconclusive means that the source gave no clear call. Such entries were picked first, then a sample of the others. For some assays here: Potencies beside an inconclusive call are fits to weak or partial responses and may not hold up. Active and inactive are the calls of the source. The calls were made as follows: active = hit-call score of the fitted dose curve at least 0.9, where 1 is the maximum; inconclusive = response in the unintended direction; inactive = score below 0.9.
How the values were obtained:
[1] = target: Nuclear receptor subfamily 1 group I member 2 (Homo sapiens) (UniProt O75469); assay: ATG_PXR_TRANS: Attagene TRANS-FACTORIAL HepG2 Assay for human Pregnane X Receptor (PXR) (AID 2283008)
Procedure, shortened: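 HepG2 transfected (FuGene 6) with GAL4-UAS reporter units + PXR-Gal4 chimera; dosed 24 h. Total RNA → oligo(dT) RT → PCR → 6-FAM primer extension → HpaI cut → CE. Gain-of-signal vs DMSO.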

Sequences of proteins named here, by UniProt entry; tags and fusion partners are left off. A change or cut given only in a name is not applied to a line headed by its entry.
UniProt O75469: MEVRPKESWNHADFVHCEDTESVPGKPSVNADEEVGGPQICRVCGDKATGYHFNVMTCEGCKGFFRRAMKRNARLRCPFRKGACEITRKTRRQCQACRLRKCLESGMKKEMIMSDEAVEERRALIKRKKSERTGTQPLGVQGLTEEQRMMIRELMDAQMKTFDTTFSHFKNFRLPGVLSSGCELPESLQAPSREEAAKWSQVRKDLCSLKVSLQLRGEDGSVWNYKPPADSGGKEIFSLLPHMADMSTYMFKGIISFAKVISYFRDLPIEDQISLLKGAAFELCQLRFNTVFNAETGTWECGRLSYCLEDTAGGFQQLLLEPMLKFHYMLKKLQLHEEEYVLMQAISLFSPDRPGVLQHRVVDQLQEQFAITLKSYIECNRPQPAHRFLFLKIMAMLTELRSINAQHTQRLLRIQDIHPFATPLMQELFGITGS
UniProt P19793: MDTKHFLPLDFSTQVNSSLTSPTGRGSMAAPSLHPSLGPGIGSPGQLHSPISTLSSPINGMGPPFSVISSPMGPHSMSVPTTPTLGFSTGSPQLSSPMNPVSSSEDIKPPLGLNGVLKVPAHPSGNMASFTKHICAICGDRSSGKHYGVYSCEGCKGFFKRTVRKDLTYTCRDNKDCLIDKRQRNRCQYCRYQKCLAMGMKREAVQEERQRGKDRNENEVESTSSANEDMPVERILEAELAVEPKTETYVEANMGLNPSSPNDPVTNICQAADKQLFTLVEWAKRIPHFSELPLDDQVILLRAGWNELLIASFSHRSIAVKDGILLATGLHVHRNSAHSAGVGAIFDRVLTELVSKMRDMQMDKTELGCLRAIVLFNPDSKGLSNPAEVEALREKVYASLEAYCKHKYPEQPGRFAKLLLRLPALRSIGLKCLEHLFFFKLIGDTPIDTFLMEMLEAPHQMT
UniProt P10275: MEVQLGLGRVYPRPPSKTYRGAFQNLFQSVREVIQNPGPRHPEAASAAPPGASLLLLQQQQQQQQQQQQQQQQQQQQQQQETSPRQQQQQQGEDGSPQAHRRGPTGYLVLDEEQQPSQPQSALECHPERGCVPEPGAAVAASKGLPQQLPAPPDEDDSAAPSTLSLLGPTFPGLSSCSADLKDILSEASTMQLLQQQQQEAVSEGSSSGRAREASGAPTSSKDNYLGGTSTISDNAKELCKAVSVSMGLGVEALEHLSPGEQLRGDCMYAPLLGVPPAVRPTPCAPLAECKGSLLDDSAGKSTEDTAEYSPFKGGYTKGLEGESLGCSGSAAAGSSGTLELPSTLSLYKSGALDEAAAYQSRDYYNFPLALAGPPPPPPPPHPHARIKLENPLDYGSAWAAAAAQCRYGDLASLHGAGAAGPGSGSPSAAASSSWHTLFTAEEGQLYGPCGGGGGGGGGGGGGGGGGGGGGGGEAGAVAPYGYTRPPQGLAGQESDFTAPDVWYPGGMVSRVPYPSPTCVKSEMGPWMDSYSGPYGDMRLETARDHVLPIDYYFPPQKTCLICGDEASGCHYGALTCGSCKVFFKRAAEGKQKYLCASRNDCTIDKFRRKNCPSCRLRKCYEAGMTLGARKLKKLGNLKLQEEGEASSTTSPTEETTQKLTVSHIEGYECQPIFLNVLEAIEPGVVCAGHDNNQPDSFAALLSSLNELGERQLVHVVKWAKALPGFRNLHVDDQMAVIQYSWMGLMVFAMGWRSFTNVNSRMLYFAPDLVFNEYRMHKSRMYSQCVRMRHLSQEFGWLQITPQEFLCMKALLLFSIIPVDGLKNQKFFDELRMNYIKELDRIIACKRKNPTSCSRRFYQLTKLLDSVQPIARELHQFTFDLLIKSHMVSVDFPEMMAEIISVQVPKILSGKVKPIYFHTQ
UniProt P04150: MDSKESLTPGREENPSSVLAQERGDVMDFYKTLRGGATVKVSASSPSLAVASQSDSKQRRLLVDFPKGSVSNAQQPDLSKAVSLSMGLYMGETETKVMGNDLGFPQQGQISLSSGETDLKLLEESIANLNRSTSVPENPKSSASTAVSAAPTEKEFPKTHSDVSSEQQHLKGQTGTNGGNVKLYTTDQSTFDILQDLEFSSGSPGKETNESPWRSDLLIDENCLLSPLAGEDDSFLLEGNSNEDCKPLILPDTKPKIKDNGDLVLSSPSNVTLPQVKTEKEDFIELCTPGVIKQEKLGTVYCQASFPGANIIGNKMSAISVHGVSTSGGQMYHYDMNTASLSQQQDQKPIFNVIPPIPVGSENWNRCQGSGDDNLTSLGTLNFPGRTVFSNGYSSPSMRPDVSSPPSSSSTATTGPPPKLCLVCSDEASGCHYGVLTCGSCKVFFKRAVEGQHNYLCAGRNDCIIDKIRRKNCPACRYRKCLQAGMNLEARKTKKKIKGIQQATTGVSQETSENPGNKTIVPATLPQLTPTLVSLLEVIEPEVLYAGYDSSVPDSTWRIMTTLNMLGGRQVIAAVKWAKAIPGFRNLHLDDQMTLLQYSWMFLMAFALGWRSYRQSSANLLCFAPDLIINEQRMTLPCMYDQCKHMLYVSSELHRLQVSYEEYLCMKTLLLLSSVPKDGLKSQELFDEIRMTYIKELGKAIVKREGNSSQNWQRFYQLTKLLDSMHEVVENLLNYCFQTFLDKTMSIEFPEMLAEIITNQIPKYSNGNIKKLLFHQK
UniProt P04637, whole entry, looked up: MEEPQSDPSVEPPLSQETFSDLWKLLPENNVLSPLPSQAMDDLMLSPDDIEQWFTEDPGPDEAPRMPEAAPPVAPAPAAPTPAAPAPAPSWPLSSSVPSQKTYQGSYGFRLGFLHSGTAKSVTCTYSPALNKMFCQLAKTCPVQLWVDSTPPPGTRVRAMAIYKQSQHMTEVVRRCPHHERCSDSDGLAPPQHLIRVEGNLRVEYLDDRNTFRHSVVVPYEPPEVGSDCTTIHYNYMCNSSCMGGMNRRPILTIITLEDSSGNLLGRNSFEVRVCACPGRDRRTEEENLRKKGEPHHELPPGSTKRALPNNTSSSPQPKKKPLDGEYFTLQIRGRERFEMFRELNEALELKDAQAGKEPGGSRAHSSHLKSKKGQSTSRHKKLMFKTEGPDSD
UniProt P11473: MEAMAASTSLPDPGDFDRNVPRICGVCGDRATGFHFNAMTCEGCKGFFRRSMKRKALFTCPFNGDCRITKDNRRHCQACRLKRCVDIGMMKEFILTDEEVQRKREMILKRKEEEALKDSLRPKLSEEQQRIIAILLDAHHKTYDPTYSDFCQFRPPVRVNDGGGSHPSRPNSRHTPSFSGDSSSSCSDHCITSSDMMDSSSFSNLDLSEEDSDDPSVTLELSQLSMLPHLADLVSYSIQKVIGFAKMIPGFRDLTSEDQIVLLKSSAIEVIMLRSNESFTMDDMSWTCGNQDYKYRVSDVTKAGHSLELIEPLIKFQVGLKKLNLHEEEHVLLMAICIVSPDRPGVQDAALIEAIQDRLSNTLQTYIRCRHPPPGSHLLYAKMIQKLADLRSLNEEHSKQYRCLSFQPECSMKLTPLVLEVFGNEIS
UniProt Q96RI1: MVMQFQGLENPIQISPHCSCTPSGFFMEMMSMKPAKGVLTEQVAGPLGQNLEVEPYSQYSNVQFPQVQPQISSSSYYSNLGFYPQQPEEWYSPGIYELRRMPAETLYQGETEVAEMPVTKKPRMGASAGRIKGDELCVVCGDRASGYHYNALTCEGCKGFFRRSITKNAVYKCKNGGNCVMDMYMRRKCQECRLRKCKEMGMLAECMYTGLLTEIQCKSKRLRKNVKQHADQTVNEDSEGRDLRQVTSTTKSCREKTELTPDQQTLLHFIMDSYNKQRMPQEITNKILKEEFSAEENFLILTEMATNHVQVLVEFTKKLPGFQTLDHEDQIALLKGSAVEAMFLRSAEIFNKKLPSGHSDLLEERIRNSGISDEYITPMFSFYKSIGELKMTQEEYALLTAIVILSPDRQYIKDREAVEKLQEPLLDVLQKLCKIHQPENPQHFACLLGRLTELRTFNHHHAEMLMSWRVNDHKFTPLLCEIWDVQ
UniProt Q03181: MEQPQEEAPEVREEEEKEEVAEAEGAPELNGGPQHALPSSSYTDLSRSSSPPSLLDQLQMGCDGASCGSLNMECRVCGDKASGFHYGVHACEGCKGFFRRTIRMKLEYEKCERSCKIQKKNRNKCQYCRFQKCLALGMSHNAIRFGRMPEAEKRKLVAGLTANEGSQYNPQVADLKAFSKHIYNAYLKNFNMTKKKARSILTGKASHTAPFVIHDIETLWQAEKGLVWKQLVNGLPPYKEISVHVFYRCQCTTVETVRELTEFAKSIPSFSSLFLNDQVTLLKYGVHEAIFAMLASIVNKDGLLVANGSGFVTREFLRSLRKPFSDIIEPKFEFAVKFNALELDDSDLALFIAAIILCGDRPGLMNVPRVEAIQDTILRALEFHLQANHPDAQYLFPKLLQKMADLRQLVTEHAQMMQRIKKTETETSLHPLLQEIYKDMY
UniProt P37231: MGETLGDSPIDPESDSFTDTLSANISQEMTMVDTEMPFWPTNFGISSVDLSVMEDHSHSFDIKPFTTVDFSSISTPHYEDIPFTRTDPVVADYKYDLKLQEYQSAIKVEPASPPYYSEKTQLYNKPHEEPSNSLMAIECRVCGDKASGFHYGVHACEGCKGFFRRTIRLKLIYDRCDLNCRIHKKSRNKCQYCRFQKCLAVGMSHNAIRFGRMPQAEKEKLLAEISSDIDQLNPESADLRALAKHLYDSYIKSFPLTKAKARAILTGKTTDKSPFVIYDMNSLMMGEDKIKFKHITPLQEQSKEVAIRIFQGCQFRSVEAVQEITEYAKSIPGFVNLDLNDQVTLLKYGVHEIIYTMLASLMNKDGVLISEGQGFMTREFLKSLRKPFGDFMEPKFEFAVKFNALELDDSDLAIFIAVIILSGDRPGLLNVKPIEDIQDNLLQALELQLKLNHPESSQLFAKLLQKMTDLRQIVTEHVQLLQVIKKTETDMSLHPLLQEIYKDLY

[2] = target: Retinoic acid receptor RXR-alpha (Homo sapiens) (UniProt P19793); assay: OT_NURR1_NURR1RXRa_0480: Odyssey Thera (OT) 8-hour HEK293T Protein Complementation Assay for Nurr1/retinoid X receptor (RXR) (AID 2283385)
Procedure, shortened: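 Read-out: fluorescence from protein-fragment complementation between Nurr1 and RXRα in human HEK293T cells, 8 h after dosing. DMSO served as negative control; increased signal counted as activity.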

[3] = target: Retinoic acid receptor RXR-alpha (Homo sapiens) (UniProt P19793); assay: OT_NURR1_NURR1RXRa_1440: Odyssey Thera (OT) 24-hour HEK293T Protein Complementation Assay for Nurr1/retinoid X receptor (RXR) (AID 2283386)
Procedure, shortened: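 Fluorescence PCA read-out; HEK293T; 24 h post-dose; bait/prey fused to reporter fragments; gain-of-signal fit vs DMSO negative control.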

[4] = TOX21_p53_BLA_p5_viability: Viability Assessment in the Tox21 HCT-116 p53 Agonism Beta-lactamase Assay, Phase 5 (AID 2283600)
Procedure, shortened: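 Here cell health was gauged by ATP levels in wells holding 4000 cells, each treated 16 h with DMSO-delivered compounds at 217-fold dilution; reduced luminescence marked toxicity.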

[5] = target: Androgen receptor (Homo sapiens) (UniProt P10275); assay: ATG_AR_TRANS: Attagene TRANS-FACTORIAL HepG2 Assay for human Androgen Receptor (AR) (AID 2282973); details: HepG2 Attagene TRANS-FACTORIAL AR reporter transcription
Procedure, shortened: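 Chimeric nuclear receptor–Gal4 activity was assessed in human HepG2 hepatocytes after 24 h chemical dosing. Induced reporter mRNA was detected via labelled RT-PCR fragments on capillary electrophoresis, and gain of signal was analysed against DMSO.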

[6] = ATG_M_19_TRANS: Attagene TRANS-FACTORIAL HepG2 Assay for M19 Transcription Factor (Internal Marker) (AID 2282974); details: HepG2 Attagene TRANS-FACTORIAL M19 internal marker reporter
Procedure, shortened: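 Fluorescence of 6-FAM-labelled reporter cDNA fragments, separated by capillary electrophoresis, served as the readout. These derived from HepG2 cells carrying transfected GAL4-UAS reporter units after 24 h dosing, with DMSO as negative control.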

[7] = target: Glucocorticoid receptor (Homo sapiens) (UniProt P04150); assay: ATG_GR_TRANS: Attagene TRANS-FACTORIAL HepG2 Assay for human Glucocorticoid Receptor (GR) (AID 2282978); details: HepG2 Attagene TRANS GR reporter, mRNA transcription;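 also: activators score as hits since higher reporter transcript over DMSO is fitted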
Procedure, shortened: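 Fluorescent capillary-electrophoresis quantitation of reporter mRNA is the readout, taken 24 h after dosing human HepG2 cells carrying transiently transfected GAL4-UAS reporter units activated by chimeric NR-GAL4 fusions; activity scored as induction over DMSO.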

[8] = ATG_M_06_TRANS: Attagene TRANS-FACTORIAL HepG2 Assay for M06 Transcription Factor (Internal Marker) (AID 2282983); details: HepG2 Attagene TRANS M06 internal marker reporter;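 as to AC50: potency for rise in reporter mRNA above DMSO baseline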
Procedure, shortened: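 Multi-reporter-transfected HepG2, 24 h treatment; reporter transcripts quantified via RT-PCR, primer-extension labelling and CE. DMSO-normalized gain-of-signal fit.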

[9] = target: Cellular tumor antigen p53 (Homo sapiens) (UniProt P04637); assay: TOX21_p53_BLA_p2_ratio: Tox21 HCT-116 p53 Agonism Beta-lactamase Assay, Ratio, Phase 2 (AID 2283592)
Procedure, shortened: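 DMSO-normalized, positive-direction endpoint derived from the 460 nm/530 nm FRET ratio in HCT116 p53 beta-lactamase reporter cells exposed 16 h at 37C and loaded with CCF4-AM for 2 h.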

[10] = target: Cellular tumor antigen p53 (Homo sapiens) (UniProt P04637); assay: TOX21_p53_BLA_p5_ratio: Tox21 HCT-116 p53 Agonism Beta-lactamase Assay, Ratio, Phase 5 (AID 2283599)
Procedure, shortened: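 Beta-lactamase reporter ratio (blue 460 nm over green 530 nm, 405 nm excitation) after 2 h CCF4-AM loading, in HCT-116 cells exposed 16 h at 37 C to compounds pinned at 217-fold dilution. Increases relative to DMSO baseline scored.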

[11] = ATG_M_32_TRANS: Attagene TRANS-FACTORIAL HepG2 Assay for M32 Transcription Factor (Internal Marker) (AID 2282984); details: HepG2 Attagene TRANS M32 internal marker reporter
Procedure, shortened: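 Cell-based TRANS-format assay in HepG2: exogenous chimeric GAL4 reporter units transiently expressed, compounds applied 24 h. Reporter mRNA detected by RT-PCR plus capillary electrophoresis; this readout is an internal background marker.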

[12] = target: human Vitamin D Receptor (VDR), VDR (gene 7421) (UniProt P11473); assay: ATG_VDR_TRANS: Attagene TRANS-FACTORIAL HepG2 Assay for human Vitamin D Receptor (VDR) (AID 2283022)
Procedure, shortened: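 Multiplexed TRANS reporter in HepG2; 24 h treatment; reporter mRNA by RT-PCR plus capillary electrophoresis; upregulation scored relative to DMSO.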

[13] = ATG_XTT_Cytotoxicity: Cytotoxicity Assessment in the Attagene TRANS-FACTORIAL HepG2 Assay (AID 2283584);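 also: XTT signal for cell number as viability in transfected HepG2 cells; cells exposed to compound for 24 h before reading; active means loss of viability signal versus DMSO baseline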
Procedure, shortened: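 24 h chemical exposure of reporter-transfected HepG2; XTT signal loss vs DMSO indicates cytotoxicity.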

[14] = target: Bile acid receptor (Homo sapiens) (UniProt Q96RI1); assay: ATG_FXR_TRANS: Attagene TRANS-FACTORIAL HepG2 Assay for Farnesoid X Receptor (FXR) (AID 2282979); details: HepG2 Attagene TRANS FXR-GAL4 reporter transcription;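 also: hits raise reporter mRNA above DMSO so AC50 marks FXR activation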
Procedure, shortened: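 After 24 h chemical treatment of transfected HepG2 cells, GAL4-UAS reporter transcripts driven by an exogenous FXR-GAL4 fusion were measured by RT-PCR and capillary electrophoresis. Increases over DMSO were fitted.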

[15] = target: Cellular tumor antigen p53 (Homo sapiens) (UniProt P04637); assay: TOX21_p53_BLA_p3_ratio: Tox21 HCT-116 p53 Agonism Beta-lactamase Assay, Ratio, Phase 3 (AID 2283596)
Procedure, shortened: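 Cells were seeded at 4000/well, rested 5 h at 37C, then dosed with DMSO compound solutions (217-fold dilution) for 16 h. CCF4-AM substrate was loaded for 2 h at room temperature, and the 460/530 nm emission ratio was fitted for gain of signal versus DMSO.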

[16] = CCTE_Harrill_HTTr_CellCount_MCF7: CCTE's Cell Proliferation Assessment for the High-Throughput Transcriptomics (HTTr) Platform, Harrill Lab (AID 2284012);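 also: count of Hoechst-stained nuclei per well by high-content imaging in MCF-7 cells; cells exposed to compound for six hours; intended direction is loss of nuclei count meaning fewer cells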
Procedure, shortened: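 Readout: Hoechst nuclear count by high-content imaging. MCF-7, 8-point dilution series, 6 h exposure. Bidirectional fit vs DMSO baseline.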

[17] = target: human Peroxisome Proliferator-activated Receptor delta (PPARd), PPARD (gene 5467) (UniProt Q03181); assay: ATG_PPARd_TRANS: Attagene TRANS-FACTORIAL HepG2 Assay for human Peroxisome Proliferator-activated Receptor delta (PPARd) (AID 2283002)
Procedure, shortened: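 Transient HepG2 transfection (multiple GAL4-UAS RTUs, chimeric receptor-Gal4); 24 h dosing; total RNA → oligo(dT) RT → PCR → 6-FAM primer extension → HpaI cut → CE. Positive direction vs DMSO.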

[18] = target: Peroxisome proliferator-activated receptor gamma (Homo sapiens) (UniProt P37231); assay: ATG_PPARg_TRANS: Attagene TRANS-FACTORIAL HepG2 Assay for human Peroxisome Proliferator-activated Receptor-gamma (PPARg) (AID 2283007)
Procedure, shortened: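 Transient transfection of HepG2 with GAL4-UAS-driven reporter units; chemical dosing 24 h; total RNA → oligo(dT) RT → PCR with reporter primers → 6-FAM primer extension → HpaI digest 2 h 37 C → capillary electrophoresis. Positive direction vs DMSO.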

[19] = CCTE_Deisenroth_AIME_384WELL_CTox_Active: Cytotoxicity Assessment (CTOX) in CCTE's 384-well Estrogen Receptor Transactivation Assay with AIME metabolic competence (metabolism positive), Deisenroth Lab (AID 2284037);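 also: chemicals first conditioned 2 h by alginate-bound induced rat liver S9 before cells; activity means signal loss indicating cell death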
Procedure, shortened: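 Cytotoxicity in VM7Luc4E2 breast cells, 24 hour, measured as protease-substrate fluorescence loss, after 2-hour metabolic conditioning with induced rat hepatic S9 in alginate microspheres. Concentrations 0.002 - 200 uM, 10 points, bidirectional fitting.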

Measured: AC50

CC(C)(c1ccccc1)c1ccc(Nc2ccc(C(C)(C)c3ccccc3)cc2)cc1
inactive: [1] | [2] | [4]
inconclusive: [3] 50 µM

NCCNc1cccc2ccccc12
inactive: [5] | [7] | [8] | [10]
inconclusive: [6] 49 µM | [9] 45.2 µM

CC1CCC(C(C)CS)CC1S (centres undefined)
active: [13] 152 µM
inactive: [11] | [12]
inconclusive: [5] 33.4 µM

C=CC(=O)OCCC#N
inactive: [1]
inconclusive: [5] 100 µM | [6] 100 µM | [7] 100 µM | [14] 100 µM | [12] 100 µM | [9] 46.3 µM | [15] 46.3 µM

O=[N+]([O-])c1cc(C(F)(F)F)ccc1Cl
inactive: [5] | [11] | [16]
inconclusive: [9] 46.1 µM

Oc1ccc(Nc2ccccc2)cc1
inactive: [17]
active: [18] 23.4 µM
inconclusive: [5] 100 µM | [6] 100 µM | [7] 100 µM | [11] 1.47 µM | [13] 48.1 µM | [4] 46.1 µM

O=Cc1ccc(F)cc1
inconclusive: [5] 100 µM | [6] 168 µM | [14] 0.517 µM | [15] 46.1 µM | [10] 46.1 µM
inactive: [11] | [18] | [9] | [4]

CC(=O)Oc1ccccc1C(=O)O
inconclusive: [5] 100 µM | [6] 0.983 µM | [11] 0.11 µM | [12] 0.0727 µM | [13] 0.247 µM | [9] 23 µM | [15] 46.1 µM | [10] 46.1 µM and 23 µM | [4] 46.1 µM and 45.8 µM | [16] 50 µM | [19] 0.0002 µM

CCc1c(Br)c(Br)c(Br)c(Br)c1Br
inactive: [5] | [14] | [11] | [17] | [12]
inconclusive: [6] 100 µM | [7] 100 µM | [18] 100 µM

O=C(O)C(F)(F)C(F)(F)OC(F)(F)F
inactive: [5] | [7]
inconclusive: [6] 100 µM | [14] 100 µM | [17] 100 µM | [12] 100 µM

CN(C)N=Nc1ccccc1
inactive: [11] | [15]
inconclusive: [8] 0.129 µM | [12] 100 µM | [9] 74.8 µM | [10] 75.8 µM

Two compounds drawn at random from those above:
CC(=O)Oc1ccccc1C(=O)O
inconclusive: [5] 100 µM | [6] 0.983 µM | [11] 0.11 µM | [12] 0.0727 µM | [13] 0.247 µM | [9] 23 µM | [15] 46.1 µM | [10] 46.1 µM and 23 µM | [4] 46.1 µM and 45.8 µM | [16] 50 µM | [19] 0.0002 µM

CN(C)N=Nc1ccccc1
inactive: [11] | [15]
inconclusive: [8] 0.129 µM | [12] 100 µM | [9] 74.8 µM | [10] 75.8 µM

— PubChem BioAssay (EPA / NIEHS)
